In publication PMC7762753:
Results are given in words; binding and its absence hold for the method and conditions named. In cells and extracts the contact can be indirect. Some binding calls cover weakened binding; strength is not graded here. Values belong to the molecule of their own block, whether it stands above or below them.

Sequences of proteins named here, by UniProt entry; tags and fusion partners are left off. Residues count along the entry.
UniProt P41593, residues 464-591: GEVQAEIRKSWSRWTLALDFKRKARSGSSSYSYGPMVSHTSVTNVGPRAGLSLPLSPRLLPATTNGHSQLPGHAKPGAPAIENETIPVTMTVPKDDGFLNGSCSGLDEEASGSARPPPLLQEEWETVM
UniProt P63094: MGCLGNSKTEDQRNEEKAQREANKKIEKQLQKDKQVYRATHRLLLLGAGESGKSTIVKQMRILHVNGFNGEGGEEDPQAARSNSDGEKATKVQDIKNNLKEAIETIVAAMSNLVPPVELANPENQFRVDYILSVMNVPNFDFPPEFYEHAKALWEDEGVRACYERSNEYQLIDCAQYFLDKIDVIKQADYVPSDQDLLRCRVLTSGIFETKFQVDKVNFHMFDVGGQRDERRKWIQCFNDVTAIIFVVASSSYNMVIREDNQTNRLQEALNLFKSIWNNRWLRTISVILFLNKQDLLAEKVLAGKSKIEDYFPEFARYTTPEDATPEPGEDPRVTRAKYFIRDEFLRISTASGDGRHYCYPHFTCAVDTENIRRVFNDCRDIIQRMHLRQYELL

Tests used:
[1] = biological target: T1, full-length Kindlin-2 (expression plasmid, COS-7 cells) (UniProt Q8CIB5); assay: co-IP; COS-7 cells co-transfected with Flag-tagged PTH1R cytoplasmic constructs and full-length Kindlin-2; extracts precipitated with Kindlin-2 antibody, blot with Flag and Kindlin-2 antibodies; IP lysis buffer pH 7.4, 0.15 M NaCl, 1% NP-40
T1 sequence: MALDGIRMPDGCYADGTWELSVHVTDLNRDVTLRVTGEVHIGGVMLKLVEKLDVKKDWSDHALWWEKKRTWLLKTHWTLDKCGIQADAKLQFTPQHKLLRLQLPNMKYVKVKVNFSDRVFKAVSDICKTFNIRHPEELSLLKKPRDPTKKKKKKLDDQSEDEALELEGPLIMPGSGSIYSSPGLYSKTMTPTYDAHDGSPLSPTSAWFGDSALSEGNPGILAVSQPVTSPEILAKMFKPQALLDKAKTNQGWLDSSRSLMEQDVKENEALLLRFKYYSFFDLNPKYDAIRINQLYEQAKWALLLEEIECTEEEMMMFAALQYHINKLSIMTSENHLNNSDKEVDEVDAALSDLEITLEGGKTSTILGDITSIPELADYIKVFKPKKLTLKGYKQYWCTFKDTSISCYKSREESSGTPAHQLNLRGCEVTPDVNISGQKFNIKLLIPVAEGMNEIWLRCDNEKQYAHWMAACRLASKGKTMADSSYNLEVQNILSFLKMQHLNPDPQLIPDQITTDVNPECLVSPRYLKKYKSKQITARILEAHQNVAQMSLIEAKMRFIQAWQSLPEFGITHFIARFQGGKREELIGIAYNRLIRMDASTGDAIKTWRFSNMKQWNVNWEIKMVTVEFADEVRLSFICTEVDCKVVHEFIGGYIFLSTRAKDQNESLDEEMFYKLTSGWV

[2] = biological target: T2, Kindlin-2 (endogenous, MC-4 osteoblastic cells) (mouse (endogenous in MC-4)) (UniProt Q8CIB5); assay: co-IP; endogenous proteins; whole-cell extracts of MC-4 cells incubated with Kindlin-2 antibody or IgG, Protein A/G magnetic beads, western blotting; IP lysis buffer pH 7.4, 0.025 M Tris, 0.15 M NaCl, 0.001 M EDTA, 1% NP-40, 5% glycerol
T2 sequence: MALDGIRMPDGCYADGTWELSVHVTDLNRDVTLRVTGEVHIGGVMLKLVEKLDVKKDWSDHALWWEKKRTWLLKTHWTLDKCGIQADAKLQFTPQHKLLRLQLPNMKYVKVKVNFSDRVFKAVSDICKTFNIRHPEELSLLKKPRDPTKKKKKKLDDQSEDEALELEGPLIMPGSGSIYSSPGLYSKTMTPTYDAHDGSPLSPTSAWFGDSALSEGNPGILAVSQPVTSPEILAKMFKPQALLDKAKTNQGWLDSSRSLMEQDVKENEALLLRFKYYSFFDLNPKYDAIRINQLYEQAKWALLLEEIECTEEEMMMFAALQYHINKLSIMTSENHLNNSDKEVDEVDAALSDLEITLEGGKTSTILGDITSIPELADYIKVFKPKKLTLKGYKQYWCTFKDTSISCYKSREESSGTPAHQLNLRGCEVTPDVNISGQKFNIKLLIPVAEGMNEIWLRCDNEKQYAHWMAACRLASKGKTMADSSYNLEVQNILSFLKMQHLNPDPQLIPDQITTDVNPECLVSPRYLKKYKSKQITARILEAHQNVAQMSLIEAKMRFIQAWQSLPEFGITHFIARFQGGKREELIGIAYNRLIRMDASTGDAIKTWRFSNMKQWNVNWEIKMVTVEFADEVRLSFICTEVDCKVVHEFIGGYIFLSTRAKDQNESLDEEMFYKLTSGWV

[3] = biological target: Flag-tagged 128-aa C-terminal cytoplasmic domain of PTH1R (mouse) (UniProt P41593); assay: co-IP; COS-7 cells co-transfected with Flag-PTH1R (128 aa) and full-length Kindlin-2; extracts precipitated with Flag antibody, blot for Kindlin-2; IP lysis buffer pH 7.4, 0.15 M NaCl, 1% NP-40

binding [1]: binds
Molecule: Flag-tagged 128-aa C-terminal cytoplasmic domain of PTH1R (from UniProt P41593 464-591) (domain or fragment)

binding [2]: binds
Molecule: Gsα, the stimulatory subunit of G protein (endogenous, MC-4 osteoblastic cells) (from UniProt P63094 1-394)

binding [3]: binds
B1: full-length Kindlin-2 (expression plasmid, COS-7 cells) (protein, UniProt Q8CIB5 1-680)
chain: MALDGIRMPDGCYADGTWELSVHVTDLNRDVTLRVTGEVHIGGVMLKLVEKLDVKKDWSDHALWWEKKRTWLLKTHWTLDKCGIQADAKLQFTPQHKLLRLQLPNMKYVKVKVNFSDRVFKAVSDICKTFNIRHPEELSLLKKPRDPTKKKKKKLDDQSEDEALELEGPLIMPGSGSIYSSPGLYSKTMTPTYDAHDGSPLSPTSAWFGDSALSEGNPGILAVSQPVTSPEILAKMFKPQALLDKAKTNQGWLDSSRSLMEQDVKENEALLLRFKYYSFFDLNPKYDAIRINQLYEQAKWALLLEEIECTEEEMMMFAALQYHINKLSIMTSENHLNNSDKEVDEVDAALSDLEITLEGGKTSTILGDITSIPELADYIKVFKPKKLTLKGYKQYWCTFKDTSISCYKSREESSGTPAHQLNLRGCEVTPDVNISGQKFNIKLLIPVAEGMNEIWLRCDNEKQYAHWMAACRLASKGKTMADSSYNLEVQNILSFLKMQHLNPDPQLIPDQITTDVNPECLVSPRYLKKYKSKQITARILEAHQNVAQMSLIEAKMRFIQAWQSLPEFGITHFIARFQGGKREELIGIAYNRLIRMDASTGDAIKTWRFSNMKQWNVNWEIKMVTVEFADEVRLSFICTEVDCKVVHEFIGGYIFLSTRAKDQNESLDEEMFYKLTSGWV
